In PubChem BioAssay AID624297 (National Center for Advancing Translational Sciences (NCATS), 2012):
Out of some 340,000 compounds screened, about 6,200 (1.8%) were called active. Inconclusive means that the source gave no clear call. Such entries were picked first, then a sample of the others. The call rests on the fitted dose curve; in most records, active means well fitted activation curve with a large enough effect; inconclusive means small, poorly fitted or top-dose-only effect; inactive means no such curve, though single readings can be large or run the other way. Potencies beside an inconclusive call are fits to weak or partial responses and may not hold up.
Potency means the concentration at half of the fitted maximal effect.

Experiment: A quantitative high throughput screen for small molecules that induce DNA re-replication in SW480 colon adenocarcinoma cells. Further: nearly all actives have a fitted effect of over 55% in size. On re-replication activation: % of control where 0% means no effect.
Conditions: Hoechst DNA content imaging, 48 h; re-replication activation: at 46.1 µM (top of the series) unless noted
Summary of the method: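 250 cells/well; 23 nL cpd via pin tool; 48 hr, 37 C, 5% CO2; Hoechst 40 min; imager read of total nuclear intensity, ex 405/em 500-530 nm.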
In the case of CCc1ccc(C2=NN(c3ccc(S(N)(=O)=O)cc3)C(c3ccc(F)cc3)C2)cc1 (centres undefined), the Potency is reported as active: 9.2 µM.
For Cc1ccccc1C(=O)Nc1cccc(C(=O)N/N=C/c2ccc3c(c2)OCO3)c1, the Potency was inconclusive: 29.1 µM [activator, single point].
With Cc1cccnc1NC(=S)NC(=O)c1cccs1 the Potency was inconclusive: 29.1 µM [activator, single point].
In the case of COc1ccc(OC)c(C2=CC(=O)C[C@H](c3ccc4c(c3)OCO4)C2)c1, the Potency is reported as inconclusive: 25.9 µM [activator, single point].
In the case of Fc1ccccc1CNC(=S)Nc1cccc(C(F)(F)F)c1, the Potency is reported as “inactive”.
With Cn1c(=O)n(CCOc2ccc([N+](=O)[O-])cc2)c2ccccc21 the Potency was inconclusive: 0.731 µM [activator, partial curve, poor fit].
With COc1ccccc1/C=C/C(=O)OCCN1C(=O)c2ccccc2C1=O the Potency was “inactive”.
With O=C(NC1=NCCS1)c1csc2ccccc12 the Potency was “inactive”.
In the case of C[C@H](CO)N1C[C@H](C)[C@@H](CN(C)S(=O)(=O)c2cn(C)cn2)Oc2ccc(NS(=O)(=O)c3ccccc3)cc2C1=O, the Potency is reported as inconclusive: 0.13 µM [activator, full curve, poor fit].
In the case of CCCn1nc(C(=O)NCc2ccc3c(c2)OCO3)c2ccccc2c1=O, the Potency is reported as “inactive”.
In the case of Cc1ccc(C2=NN(S(C)(=O)=O)C(c3cccs3)C2)cc1 (centres undefined), the Potency is reported as “inactive”.
In the case of O=C(c1cccs1)N1CCN(c2ccccc2)CC1, the Potency is reported as “inactive”.
For O=C(CSc1ncn[nH]1)Nc1ccc([N+](=O)[O-])cc1Br, the Potency was inconclusive: 1.64 µM [activator, full curve, poor fit].
For O=C(/C=C/Sc1ncn[nH]1)c1ccc(Cl)cc1, the Potency was inconclusive: 6.51 µM [activator, single point].
With CN(NC(=O)Nc1ccc(Cl)cc1)c1ncc(C(F)(F)F)cc1Cl the Potency was inconclusive: 18.4 µM [activator, single point].
In the case of COc1cccc(OC)c1OCCNCC1CSc2ccccc2O1 (centres undefined), the Potency is reported as “inactive”.
In the case of Cc1oc(C)c(S(=O)(=O)NCc2cccs2)c1C(=O)O, the Potency is reported as inconclusive: 2.59 µM [activator, partial curve, poor fit].
With O=C(/C=C/c1cccc([N+](=O)[O-])c1)NCCc1ccc(F)cc1 the Potency was inconclusive: 0.0052 µM [activator, full curve, poor fit].
For O=C(CNC(=O)c1ccncc1)N/N=C/c1ccc(Br)cc1, the Potency was inconclusive: 3.66 µM [activator, full curve, poor fit].
In the case of COc1ccc(-c2sc3ccccc3c2-c2ccc(OCCN3CCCCC3)cc2)cc1, the Potency is reported as inconclusive: 32.6 µM [activator, partial curve, poor fit].
With O=C(Nc1ccc2oc(-c3ccccc3)nc2c1)C1CCCO1 (centres undefined) the Potency was “inactive”.
For CCOC(=O)C1=C(CN2CCc3ccccc32)NC(=O)NC1c1cc(C)ccc1C (centres undefined), the Potency was inconclusive: 17.8 µM [activator, single point].
With Cc1ccc(/C=N/NC(=O)CSc2nc3ccccc3[nH]2)o1 the Potency was inconclusive: 7.31 µM [activator, partial curve].
For CC(=O)[C@@H]1[C@@H](C(=O)c2ccccc2)[C@]2(C(=O)Nc3ccccc32)[C@H]2C=Cc3cc(F)ccc3N12, the Potency was inconclusive: 29.1 µM [activator, single point].
With CC(C)Cn1c(CN(C)Cc2ccccc2)nc2c1c(=O)n(C)c(=O)n2C the Potency was “inactive”.
With COc1ccc(Cl)cc1S(=O)(=O)N1CCN=C1C the Potency was inconclusive: 3.66 µM [activator, partial curve, poor fit].
With CC(C)C[C@H]1CN=C(Nc2ccccc2)N1CC1CCC(C(C)(C)C)CC1 (some centres undefined) the re-replication activation was inactive: -2.18% [at 9.22 µM].
With Clc1cccc(OCCCCN2CCCCC2)c1 the re-replication activation was inconclusive: 34.7% [activator].
With COc1cc(OC)cc(-c2nc3ccccc3c(=O)n2OC(=O)c2ccccc2C)c1 the Potency was “inactive”.
For CCC/C=C(\CCC)C(NS(=O)(=O)c1cccc2cccnc12)c1ccc(C(=O)OC)cc1 (centres undefined), the Potency was inconclusive: 10.3 µM [activator, partial curve, poor fit].
For O=C1C(=O)N(C2CCS(=O)(=O)C2)C(c2cccc(O)c2)/C1=C(/O)c1ccc(Cl)cc1 (centres undefined), the Potency was “inactive”.
In the case of CCc1nn2c(=O)cc(CSCC(=O)Nc3ccccc3Cl)nc2s1, the Potency is reported as inconclusive: 18.4 µM [activator, single point].
For N#C/C(=C\C=C\c1ccccc1[N+](=O)[O-])C(=O)NC1CCCCC1, the Potency was inconclusive: 3.66 µM [activator, full curve, poor fit].
For O=C(c1ccc(F)cc1)N1CCCC(c2ccccc2)C1 (centres undefined), the Potency was “inactive”.
For O=C(NCc1ccc(Cl)cc1)C(=O)NCC1OCCCN1S(=O)(=O)c1cccs1 (centres undefined), the Potency was “inactive”.
With Cc1ccccc1NC(=O)CSc1nc(Nc2ccccc2)nc(N2CCOCC2)n1 the Potency was inconclusive: 29.1 µM [activator, single point].
With C=CCn1c(COc2cccc(C)c2C)nnc1SCC(=O)N1CCN(c2ccccc2)CC1 the Potency was inconclusive: 7.31 µM [activator, partial curve, poor fit].
For O=C(O)CS(=O)(=O)CC(=O)O, the Potency was inconclusive: 14.6 µM [activator, single point].
For N/C(=N\OC(=O)c1ccc2ccccc2c1)c1ccccc1Cl, the Potency was inconclusive: 25.9 µM [activator, partial curve, poor fit].
With CCc1nc(Nc2ccc(O)cc2)c2oc3ccccc3c2n1 the Potency was “inactive”.
For COc1ccc(NC(=O)CN(C)C(=O)c2cccc(S(=O)(=O)N3CCCc4ccccc43)c2)cc1, the Potency was “inactive”.
In the case of O=C(c1cccc(OC2CCN(Cc3cc(F)cc(F)c3)CC2)c1)N1CCCC1, the Potency is reported as inconclusive: 18.4 µM [activator, partial curve, poor fit].
In the case of CCOC(=O)c1c(NC(=O)CN2CCC(C)CC2)sc(C)c1C, the Potency is reported as “inactive”.
With COc1ccc(C(C)NC(=O)Cc2ccc(Br)cc2)cc1 (centres undefined) the Potency was inconclusive: 3.66 µM [activator, partial curve, poor fit].
For CNC(=O)c1ccsc1NC(=O)c1sc2ccccc2c1Cl, the Potency was inconclusive: 20.6 µM [activator, single point].
For COc1ccc(C(=O)c2c3ccc([N+](=O)[O-])cc3[n+]([O-])n2CCCC(N)=O)cc1, the Potency was inconclusive: 29.1 µM [activator, single point].
With Cc1cc(C)nc(NS(=O)(=O)c2ccc(NC(=O)CSc3nc4ccccc4[nH]3)cc2)n1 the Potency was “inactive”.
With Cc1cccc2nc(CSC(=N)N)c(Br)n12 the Potency was inconclusive: 20.6 µM [activator, single point].
For Cc1cccc2cc3c(nc12)SC(=NCC1CCCO1)N(Cc1ccco1)C3 (centres undefined), the Potency was active: 5.8 µM.
For Nc1c(S(=O)(=O)c2cccs2)c2nc3ccccc3nc2n1/N=C/c1cccc(O)c1, the Potency was inconclusive: 23.1 µM [activator, single point].
For CC1CCN(C(=S)c2ccc3c(c2)OCO3)CC1, the Potency was “inactive”.
With Cc1ccccc1S(=O)(=O)Nc1nc2ccccc2nc1N1CCc2ccccc2C1 the Potency was inconclusive: 23.1 µM [activator, partial curve, poor fit].
In the case of O=C(CN(c1cccc(C(F)(F)F)c1)S(=O)(=O)c1ccc(Cl)c([N+](=O)[O-])c1)NCc1ccc(F)cc1, the Potency is reported as inconclusive: 23.1 µM [activator, single point].
With N#CCN(CC#N)C(=O)C1c2ccccc2Oc2ccccc21 the Potency was “inactive”.
In the case of CCOc1cccc2cc(C(=O)N3CCN(C/C=C/c4ccccc4)CC3)c(=O)oc12, the Potency is reported as “inactive”.
In the case of COc1ccc(C(=O)/C=C/c2ccc(F)cc2)c(OC(=O)c2ccc([N+](=O)[O-])cc2)c1, the Potency is reported as inconclusive: 35.5 µM [activator, single point].
With CC1(C)CC(=O)C(N=Nc2cccc([N+](=O)[O-])c2)=C(O)C1 the Potency was inconclusive: 29.1 µM [activator, single point].
In the case of O=C(NCc1cccnc1)C(=O)NCC(c1ccco1)N1CCN(c2ccccc2)CC1 (centres undefined), the Potency is reported as inconclusive: 0.184 µM [activator, full curve, poor fit].
In the case of O=C(NC1CCCC1)C(c1ccncc1)N(C(=O)c1csnn1)C1CCCC1 (centres undefined), the Potency is reported as “inactive”.
With Cc1cc(OCC(=O)NCc2ccccn2)c2c(C)c(Cc3ccccc3)c(=O)oc2c1 the Potency was “inactive”.
With COc1ccc(Cl)cc1NC(=O)CSc1nc(C)cc(C)n1 the Potency was inconclusive: 29.1 µM [activator, partial curve, poor fit].
In the case of O=C(CN1CCN(c2ccc(O)cc2)CC1)Nc1cc(S(=O)(=O)N2CCCC2)ccc1Cl, the Potency is reported as inconclusive: 10.3 µM [activator, partial curve].
In the case of CC(C)(C)OC(=O)NOCC(=O)N(Cc1ccccc1)CC(O)COc1ccccc1 (centres undefined), the Potency is reported as inconclusive: 7.31 µM [activator, partial curve, poor fit].
With Cc1cc(-c2ccccc2)nc(SCC(=O)c2cccc([N+](=O)[O-])c2)n1 the Potency was active: 16.4 µM.
For COc1ccc(C)cc1NS(=O)(=O)c1ccc(NC(=O)CN(c2cc([N+](=O)[O-])ccc2C)S(C)(=O)=O)cc1, the Potency was inconclusive: 2.31 µM [activator, full curve, poor fit].
In the case of COc1cccc(-c2nnc(NC(=O)c3ccc(Cl)s3)o2)c1, the Potency is reported as “inactive”.
For CN(C)CCCN(C(=O)c1ccco1)c1nc2ccc(Br)cc2s1, the Potency was inconclusive: 29.1 µM [activator, single point].
For CCc1ccc(NC(=O)CC2C(=O)N(c3ccc(C)cc3)C(=O)N2CCc2ccncc2)cc1 (centres undefined), the Potency was “inactive”.
With Cc1cccc2c1N(CCOc1ccccc1)C(=O)C2=O the Potency was inconclusive: 29.1 µM [activator, single point].
